Measurements taken from patent US8143072B2, “System for detecting nanoparticles using modulated surface plasmon resonance” (The University of Toledo, priority 2006, dated 2012).

What was measured:
[1] = Loading of rhodamine B derivatives on MNPs by silanization, UV-vis at 554 nm (indirect, subtraction); conditions: on MNPs (0.37 mg), ethanol, 24 hrs
[2] = Loading of glucosamine 14 on MNPs, quantified by additional rhodamine B 2 immobilized

Rhodamine B ACA APTES Conjugate [Rhodamine B derivative 2]
Maximum Loading Level [1]: 0.0015 mol/g

Rhodamine B PentaACA APTES Conjugate [Rhodamine B derivative 4]
Maximum Loading Level [1]: 0.00111 mol/g

Rhodamine B TriACA APTES Conjugate [Rhodamine B derivative 3]
Maximum Loading Level [1]: 0.00153 mol/g

p-[4-(N-(3-Triethoxysilylpropylamino)succinamido)]-benzyl 4,6-O-benzylidene-2-deoxy-2-phthalimido-β-D-glucopyranoside [glucosamine 14]
amount added at which additional rhodamine B 2 immobilized became zero ([2]; MNPs (0.37 mg), FIG. 23): 1.0 µmol | maximum loading level on MNPs ([2]; assuming 60% of 14 added was immobilized): 0.0016 mol/g
